# Experimental data as given in PubChem BioAssay AID1347076 (National Center for Advancing Translational Sciences (NCATS), 2019).
# Among all 400,000 compounds or so, about 13,000 (3.2%) were called active. Inconclusive results, whose numbers are uncertain, are shown with a selection of clear calls. The call rests on the fitted dose curve; in most records, active means well fitted cell-killing curve with a large enough effect; inconclusive means small, poorly fitted or top-dose-only effect, or effect the other way; inactive means flat fitted curve, though single readings scatter. Where the call is inconclusive, the potency comes from a doubtful curve fit.
# Test: qHTS assay for MDR1-selective chemotherapeutics: Primary screen using the drug-selected MDR subline cells KB-V1; further: nearly all actives have a fitted effect of over 60% in size
# Settings: KB-V1 MDR cells viability, CellTiter-Glo, 72 h; activity change, negative = cytotoxicity: at 46.1 µM (top of the series)
# Summary of the method: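 Compound-treated KB-V1 multidrug-resistant cells, 72 h, 37 degrees C; viability by CellTiter-Glo. Fitted qHTS curves give the values.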
# On the % scale 0 is the no-effect control and ±100 the full control effect; potency means the concentration at half of the fitted maximal effect.
Compound,Potency,"activity change, negative = cytotoxicity"
CCn1c2ccccc2c2cc(NC(=O)CN(C)CC(=O)Nc3ccc(N4CCOCC4)cc3)ccc21,"inconclusive: 29.1 µM [rising, single point]",
Cc1ccc(S(=O)(=O)N(C)C)cc1NC(=S)N(CCC#N)Cc1cccnc1,,inconclusive: 11.8%
Cc1cc(Nc2ccccc2C(=O)O)n2ncnc2n1,"inconclusive: 1.84 µM [rising, partial curve, poor fit]",
C=CCOc1c(CNC2CCCC2)cc(Cl)cc1OC,inactive,
Cc1ccc(S(=O)(=O)N(C)c2ccc(OCC(=O)Nc3cc(C(=O)O)ccc3Cl)cc2)cc1,"inconclusive: 18.4 µM [rising, single point]",
COc1ccc(OC)c(NC(=O)c2cc(-c3cc(C)ccc3O)n[nH]2)c1,"inconclusive: 29.1 µM [cytotoxic, single point]",
CC1CCCCN1C(=O)CCC(=O)Nc1nnc(C(F)(F)F)s1 (configuration not stated),inactive,
O=C(O)CSCC(=O)N1CCCN(c2nc3ccc(Cl)cc3s2)CC1,"inconclusive: 16.4 µM [rising, partial curve, poor fit]",
O=c1c2ccccc2sc2ccccc12,"inconclusive: 29.1 µM [rising, single point]",
CCCCNC(=O)Cn1cnc([N+](=O)[O-])n1,"inconclusive: 29.1 µM [rising, single point]",
COc1ccc(Cl)cc1NC(=O)CN(C)C(=O)Cn1c(=O)oc2ccccc21,"inconclusive: 16.4 µM [cytotoxic, partial curve, poor fit]",
Cc1nn(C(=O)c2nn(C)cc2[N+](=O)[O-])c(C)c1Cl,"inconclusive: 8.2 µM [rising, partial curve, poor fit]",
CCS(=O)(=O)N1CCC(C(=O)Nc2ccc(C(C)=O)cc2)CC1,inactive,
CNc1ccc(-c2nc(-c3ccccn3)no2)cc1[N+](=O)[O-],inactive,
CCOC(=O)N1CCN(C(=O)CSc2nnc(-c3ccc(C)c(C)c3)o2)CC1,inactive,
O=C(CN1C(=O)NC2(CCCC2)C1=O)N1CCN(c2cccc(C(F)(F)F)c2)CC1,"inconclusive: 16.4 µM [cytotoxic, single point]",
Cc1coc(C)c1C(=O)Nc1ccc2ccccc2c1,"inconclusive: 2.91 µM [rising, partial curve, poor fit]",
CCOC(=O)c1ccccc1NC(=S)N1CC(C)CC(C)C1 (configuration not stated),"inconclusive: 14.6 µM [cytotoxic, partial curve]",
Oc1ccc(C=Nc2ccccc2-c2nc3ccccc3[nH]2)c(O)c1,"inconclusive: 29.1 µM [cytotoxic, single point]",
COc1ccc(Cl)cc1NC(=O)Nc1ccc(Br)cn1,inactive,
OC(c1ccc(-c2ccccc2)cc1)c1ncc(-c2ccccc2Cl)[nH]1 (configuration not stated),inactive,
CN(C)c1ccc(/C=C/c2ccnc3c(Cl)cccc23)cc1,"inconclusive: 14.6 µM [cytotoxic, partial curve, poor fit]",
Cc1cc(C)cc(N(C(=O)CNC(=O)c2ccco2)C(C(=O)NC2CCCCC2)c2cccnc2)c1 (configuration not stated),inactive,
COc1ccc(C(=S)N2CCOCC2)cc1OS(=O)(=O)c1ccc(Br)cc1,"inconclusive: 7.31 µM [cytotoxic, partial curve]",

# Gathered by group, the compounds so far with bromine.
Compound,Potency,"activity change, negative = cytotoxicity"
COc1ccc(Cl)cc1NC(=O)Nc1ccc(Br)cn1,inactive,
COc1ccc(C(=S)N2CCOCC2)cc1OS(=O)(=O)c1ccc(Br)cc1,"inconclusive: 7.31 µM [cytotoxic, partial curve]",

# Following part

Compound,Potency,"activity change, negative = cytotoxicity"
CCCCNC(=O)C1(C)CCN1C(=O)Cc1cccc2ccccc12 (configuration not stated),inactive,
CCOc1ccc(C2c3[nH]c4ccccc4c3CCN2C(=O)CSc2ccccc2)cc1 (configuration not stated),"inconclusive: 16.4 µM [cytotoxic, single point]",
COc1cccc(Oc2cn[nH]c2-c2ccc(O)cc2O)c1,"inconclusive: 16.4 µM [cytotoxic, single point]",
CCOC(=O)C1CCN(C(=O)c2cccnc2Oc2ccccc2)CC1,inactive,
Cc1ccc(OCC(=O)NNC(=O)C2CCC2)cc1C,inactive,
COCCCNC(=O)Cn1c(=O)n(-c2ccccc2)c(=O)c2c1c1cc(OC)ccc1n2C,inactive,
C[C@H]1CC[C@]2(O[C@@H](CCO)C[C@H](O)[C@H]2O)O1,inactive,
Cc1cn([C@H]2C[C@H](O)[C@@H](/C=C/C(=O)NCc3ccccc3)O2)c(=O)[nH]c1=O,inactive,
Cc1ccc(S(=O)(=O)/N=C(/Nc2ccc([N+](=O)[O-])cc2[N+](=O)[O-])c2ccccc2)cc1,active: 16.4 µM,
CCCCn1c(=O)[nH]c(=O)c2c1nc(-c1ccccc1F)n2Cc1ccccc1OC,"inconclusive: 23.1 µM [cytotoxic, partial curve, poor fit]",
CC(C)n1nc(C(=O)NCc2ccc3c(c2)OCO3)c2ccccc2c1=O,"inconclusive: 3.66 µM [cytotoxic, full curve]",
COc1ncccc1-c1ccc2nncn2c1,"inconclusive: 29.1 µM [cytotoxic, single point]",
CCc1onc(C)c1C(=O)O,inactive,
CCOc1cc(CNCCSc2nnnn2C)ccc1OCc1ccc(Cl)cc1Cl,"inconclusive: 18.4 µM [cytotoxic, single point]",
c1ccc(OCc2nnc3sc(-c4cccs4)nn23)cc1,"inconclusive: 20.6 µM [cytotoxic, partial curve]",
Cc1c(C(=O)NCc2ccc(F)cc2)oc2ccc(S(=O)(=O)N3CCOCC3)cc12,"inconclusive: 5.8 µM [cytotoxic, partial curve]",
COc1ccc2cc3cc(C(=O)NCc4cccnc4)oc3nc2c1,"inconclusive: 7.31 µM [cytotoxic, partial curve]",
CCS(=O)(=O)C(C)(CCl)C(=O)Nc1ccc(C(=O)OC)cc1 (configuration not stated),inactive,
COc1cc(OC)cc(C(=O)Nc2nnc(-c3cccnc3)o2)c1,"inconclusive: 23.1 µM [cytotoxic, single point]",
COc1cc(/C=C(\C#N)C(=O)NC(C)C)cc(Cl)c1O,inactive,
Cc1ccccc1NC(=O)c1cc2ccccn2n1,"inconclusive: 3.66 µM [cytotoxic, full curve]",
N/C(=N\OC(=O)CCc1ccccc1)c1cccnc1,,inconclusive: 32%
COc1ccccc1CCN=C(N)NS(=O)(=O)c1ccccc1,"inconclusive: 29.1 µM [rising, single point]",
